# Reference: PMC7125119
# Amino acid sequences for entries named in this document (tags omitted).
# UniProt Q9NZI8, whole entry: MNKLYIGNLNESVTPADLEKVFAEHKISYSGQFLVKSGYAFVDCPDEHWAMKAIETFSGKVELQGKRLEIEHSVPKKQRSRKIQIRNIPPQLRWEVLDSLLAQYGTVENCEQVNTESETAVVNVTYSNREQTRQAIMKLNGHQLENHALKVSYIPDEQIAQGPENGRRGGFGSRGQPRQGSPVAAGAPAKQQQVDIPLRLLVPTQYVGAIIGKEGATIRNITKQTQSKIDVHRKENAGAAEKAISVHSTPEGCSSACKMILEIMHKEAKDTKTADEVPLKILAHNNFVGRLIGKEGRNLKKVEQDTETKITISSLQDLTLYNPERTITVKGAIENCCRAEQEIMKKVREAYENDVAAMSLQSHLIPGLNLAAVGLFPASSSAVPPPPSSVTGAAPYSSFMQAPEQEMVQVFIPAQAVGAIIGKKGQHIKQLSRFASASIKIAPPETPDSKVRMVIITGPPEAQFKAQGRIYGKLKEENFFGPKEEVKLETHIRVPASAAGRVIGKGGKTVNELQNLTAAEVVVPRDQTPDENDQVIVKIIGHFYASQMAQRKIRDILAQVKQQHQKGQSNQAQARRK
# UniProt Q15717, whole entry: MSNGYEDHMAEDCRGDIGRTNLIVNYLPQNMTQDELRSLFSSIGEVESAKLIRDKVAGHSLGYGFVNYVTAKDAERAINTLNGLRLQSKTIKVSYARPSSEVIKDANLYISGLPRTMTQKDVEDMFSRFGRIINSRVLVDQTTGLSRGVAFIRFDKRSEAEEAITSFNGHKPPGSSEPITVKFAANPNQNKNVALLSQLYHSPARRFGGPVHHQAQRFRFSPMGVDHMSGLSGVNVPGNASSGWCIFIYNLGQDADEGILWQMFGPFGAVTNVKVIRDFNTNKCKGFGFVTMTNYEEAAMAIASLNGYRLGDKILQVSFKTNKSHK
# UniProt P11940, whole entry: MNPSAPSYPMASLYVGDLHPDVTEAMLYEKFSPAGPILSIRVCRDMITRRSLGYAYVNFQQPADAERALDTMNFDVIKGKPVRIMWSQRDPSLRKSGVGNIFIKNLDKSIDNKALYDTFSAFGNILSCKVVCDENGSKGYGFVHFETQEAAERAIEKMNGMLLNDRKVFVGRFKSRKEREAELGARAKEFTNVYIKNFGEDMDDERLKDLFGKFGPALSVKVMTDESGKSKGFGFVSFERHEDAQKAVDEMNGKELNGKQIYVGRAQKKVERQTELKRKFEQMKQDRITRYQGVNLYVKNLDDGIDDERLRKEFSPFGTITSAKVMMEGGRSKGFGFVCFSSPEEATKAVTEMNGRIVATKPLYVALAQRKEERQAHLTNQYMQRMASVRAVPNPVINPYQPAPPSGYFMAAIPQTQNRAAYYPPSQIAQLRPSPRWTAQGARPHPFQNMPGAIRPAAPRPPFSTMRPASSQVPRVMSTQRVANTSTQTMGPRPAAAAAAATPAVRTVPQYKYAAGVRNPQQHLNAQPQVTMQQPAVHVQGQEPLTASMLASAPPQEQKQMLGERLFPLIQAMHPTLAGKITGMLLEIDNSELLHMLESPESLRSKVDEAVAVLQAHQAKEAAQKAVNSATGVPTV
# Construct, isoform or probe ends are uncertain for at least one entry. For some assays here: At least one result comes from cells or an extract, where the contact may be indirect. For some assays here: Negatives hold for the conditions tested. At least one verdict was read from the data and is not stated in words by the source. For some assays here: Where a protein sequence is shown, tags need not be part of it.
# Legend:
# [1] = molecular target: IGF2BP1 (endogenous) (Homo sapiens) (UniProt Q9NZI8); assay: pull-down; settings: Pull-down: 1 nmol biotin-RNA on streptavidin-agarose, nuclear extract, 30 C 30 min, immunoblot, protein in an extract
# [2] = molecular target: T1, MATR3 (UniProt P43243); assay: pull-down; settings: Pull-down: 1 nmol biotin-RNA on streptavidin-agarose, nuclear extract, 30 C 30 min, immunoblot, protein in an extract
# T1 sequence (looked up, limits assumed): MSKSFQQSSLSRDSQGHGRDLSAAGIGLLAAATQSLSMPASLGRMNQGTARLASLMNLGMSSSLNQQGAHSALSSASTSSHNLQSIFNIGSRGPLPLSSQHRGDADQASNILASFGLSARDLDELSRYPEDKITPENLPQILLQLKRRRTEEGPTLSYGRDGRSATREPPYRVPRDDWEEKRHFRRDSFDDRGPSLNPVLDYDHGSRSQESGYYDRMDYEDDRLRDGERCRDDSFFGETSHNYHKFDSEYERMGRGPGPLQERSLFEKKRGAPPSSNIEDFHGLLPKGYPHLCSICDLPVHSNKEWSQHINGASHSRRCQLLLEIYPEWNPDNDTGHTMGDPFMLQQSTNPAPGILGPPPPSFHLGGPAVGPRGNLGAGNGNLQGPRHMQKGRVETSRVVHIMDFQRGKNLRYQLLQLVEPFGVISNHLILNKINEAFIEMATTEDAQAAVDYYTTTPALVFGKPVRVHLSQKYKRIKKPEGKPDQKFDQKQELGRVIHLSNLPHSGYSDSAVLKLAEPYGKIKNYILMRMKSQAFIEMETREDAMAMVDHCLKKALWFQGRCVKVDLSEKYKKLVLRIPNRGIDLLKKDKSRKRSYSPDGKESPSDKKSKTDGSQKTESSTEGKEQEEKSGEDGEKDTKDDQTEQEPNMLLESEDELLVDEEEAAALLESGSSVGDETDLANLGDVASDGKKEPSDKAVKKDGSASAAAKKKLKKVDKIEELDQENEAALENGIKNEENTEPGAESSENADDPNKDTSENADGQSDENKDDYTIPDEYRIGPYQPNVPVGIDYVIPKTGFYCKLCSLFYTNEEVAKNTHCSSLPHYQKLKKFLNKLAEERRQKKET
# [3] = molecular target: HuR (UniProt Q15717); assay: pull-down; settings: Pull-down: 1 nmol biotin-RNA on streptavidin-agarose, nuclear extract, 30 C 30 min, immunoblot, protein in an extract
# [4] = molecular target: PABPC1 (UniProt P11940); assay: pull-down; settings: Pull-down: 1 nmol biotin-RNA on streptavidin-agarose, nuclear extract, 30 C 30 min, immunoblot, protein in an extract
# [5] = molecular target: IGF2BP1-Flag (recombinant) (UniProt Q9NZI8); assay: EMSA; settings: no RBRP, or RBRP G19A (no increase); m6A at 9 and 15; EMSA: LightShift kit, 20 pmol RNA, 6 ug IGF2BP1-Flag, 2 ug RBRP, room temperature 30 min, then 0.2% glutaraldehyde (1 ul) on ice 15 min, 6% TBE gel; recombinant protein; protein details: Flag; label: biotin 5'
# [6] = molecular target: IGF2BP1-HA WT (UniProt Q9NZI8); assay: pull-down; settings: RBRP (ORF-Flag) coexpressed; m6A at 9 and 15; Pull-down: 1 nmol biotin-RNA on streptavidin-agarose, nuclear extract, 30 C 30 min, immunoblot; protein in an extract; protein details: HA; label: biotin 5'
# [7] = with or without RBRP overexpression, label: biotin 5'
# [8] = enhanced by RBRP WT, not G19A, m6A at 8, 14, 20 and 31, label: biotin …
# [9] = enhanced by RBRP, m6A at 9 and 15, label: biotin 5'
# [10] = enhanced by RBRP WT, not G19A, m6A at 8 and 30, label: biotin 5'
sequence,measurement,setting,value
AGUUGAAACACAAACUUGAACAGCUACGGAACUCUU [c-Myc CRD2-A],binding result,[1]; [7],no binding
AGUUGAAACACAAACUUGAACAGCUACGGAACUCUU [c-Myc CRD2-m6A],binding result,[2]; [8],binds
same,binding result,"[1]; enhanced by RBRP (ORF), not by 5'UTR-ORFmut or RBRP G19A, m6A at 8, 14, 20 and 31, label: biotin …",binds
same,binding result,[3]; [8],binds
same,binding result,[4]; [8],binds
CGUCUCGGACUCGGACUGCU [ss-A],binding result,[1]; [7],no binding
CGUCUCGGACUCGGACUGCU [ss-m6A],binding result,[5],binds
same,binding result,[2]; [9],binds
same,binding result,[6],binds
same,binding result,"[1]; enhanced by RBRP (ORF), not by 5'UTR-ORFmut or RBRP G19A, m6A at 9 and 15, label: biotin 5'",binds
same,binding result,[3]; [9],binds
same,binding result,[4]; [9],binds
GAAGAGGACUUGUUGCGGAAACGACGAGAACAGUU [c-Myc CRD1-A],binding result,[1]; [7],no binding
GAAGAGGACUUGUUGCGGAAACGACGAGAACAGUU [c-Myc CRD1-m6A],binding result,[2]; [10],binds
same,binding result,"[1]; enhanced by RBRP (ORF), not by 5'UTR-ORFmut or RBRP G19A, m6A at 8 and 30, label: biotin 5'",binds
same,binding result,[3]; [10],binds
same,binding result,[4]; [10],binds
